# Results taken from the supplement of paper PMC10849652.
# Chains of the proteins cited; added tags and fusions are not shown. Lines headed by an entry give the natural chain unless they say otherwise; changes in a name come on top.
# UniProt Q16718, whole entry, looked up: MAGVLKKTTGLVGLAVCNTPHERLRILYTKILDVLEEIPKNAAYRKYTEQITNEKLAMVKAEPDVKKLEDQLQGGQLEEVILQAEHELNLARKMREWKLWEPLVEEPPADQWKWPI
# UniProt P62166, whole entry, looked up: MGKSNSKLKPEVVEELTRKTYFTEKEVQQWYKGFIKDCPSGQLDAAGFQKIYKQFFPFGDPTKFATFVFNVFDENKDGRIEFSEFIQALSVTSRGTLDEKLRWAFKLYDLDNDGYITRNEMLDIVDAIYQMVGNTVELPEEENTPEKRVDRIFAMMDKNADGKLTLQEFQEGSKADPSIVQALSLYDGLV
# UniProt Q99733: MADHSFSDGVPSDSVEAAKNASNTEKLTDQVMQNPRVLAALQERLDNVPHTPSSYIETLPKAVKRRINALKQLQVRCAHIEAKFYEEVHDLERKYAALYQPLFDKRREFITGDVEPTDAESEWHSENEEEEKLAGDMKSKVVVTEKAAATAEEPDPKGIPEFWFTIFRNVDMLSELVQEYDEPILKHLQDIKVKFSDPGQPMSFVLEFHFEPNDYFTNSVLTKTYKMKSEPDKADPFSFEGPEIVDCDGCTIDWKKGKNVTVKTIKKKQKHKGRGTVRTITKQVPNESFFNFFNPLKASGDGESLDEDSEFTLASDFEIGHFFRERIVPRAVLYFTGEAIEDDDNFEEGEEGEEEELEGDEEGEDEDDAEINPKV
# UniProt Q13564: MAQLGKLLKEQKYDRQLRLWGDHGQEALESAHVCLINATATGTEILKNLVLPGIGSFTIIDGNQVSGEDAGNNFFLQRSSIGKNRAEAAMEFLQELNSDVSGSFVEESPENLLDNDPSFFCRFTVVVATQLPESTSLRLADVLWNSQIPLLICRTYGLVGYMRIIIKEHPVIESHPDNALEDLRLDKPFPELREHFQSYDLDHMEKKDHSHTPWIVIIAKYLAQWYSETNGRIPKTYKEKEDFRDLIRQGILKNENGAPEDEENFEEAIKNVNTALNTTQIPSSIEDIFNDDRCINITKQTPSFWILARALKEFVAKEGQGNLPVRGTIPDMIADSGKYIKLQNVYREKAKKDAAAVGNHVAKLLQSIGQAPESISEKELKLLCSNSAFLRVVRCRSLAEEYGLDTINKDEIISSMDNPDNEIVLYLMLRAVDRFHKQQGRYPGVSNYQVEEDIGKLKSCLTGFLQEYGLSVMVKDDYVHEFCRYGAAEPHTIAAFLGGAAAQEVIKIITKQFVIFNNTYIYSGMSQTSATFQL
# UniProt Q15003, whole entry, looked up: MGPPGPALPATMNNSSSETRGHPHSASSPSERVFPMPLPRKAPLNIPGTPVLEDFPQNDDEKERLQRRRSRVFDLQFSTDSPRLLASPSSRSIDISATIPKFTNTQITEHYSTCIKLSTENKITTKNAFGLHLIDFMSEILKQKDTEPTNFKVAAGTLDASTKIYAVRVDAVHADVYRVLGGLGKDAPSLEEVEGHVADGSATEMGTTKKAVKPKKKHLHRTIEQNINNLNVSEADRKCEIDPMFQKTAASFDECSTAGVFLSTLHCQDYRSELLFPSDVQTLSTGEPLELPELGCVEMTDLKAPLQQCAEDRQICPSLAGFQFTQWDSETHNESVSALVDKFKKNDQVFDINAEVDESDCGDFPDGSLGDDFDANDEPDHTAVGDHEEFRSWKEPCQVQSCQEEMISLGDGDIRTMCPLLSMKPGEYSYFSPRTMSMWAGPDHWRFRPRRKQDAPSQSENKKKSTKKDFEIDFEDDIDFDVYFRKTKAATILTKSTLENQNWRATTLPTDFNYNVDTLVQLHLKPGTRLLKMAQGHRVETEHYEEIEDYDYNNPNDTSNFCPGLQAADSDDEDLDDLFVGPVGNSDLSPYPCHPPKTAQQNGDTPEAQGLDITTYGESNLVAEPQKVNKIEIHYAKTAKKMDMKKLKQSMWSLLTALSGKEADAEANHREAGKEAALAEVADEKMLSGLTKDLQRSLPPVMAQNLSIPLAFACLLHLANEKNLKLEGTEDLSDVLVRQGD
# UniProt P42695: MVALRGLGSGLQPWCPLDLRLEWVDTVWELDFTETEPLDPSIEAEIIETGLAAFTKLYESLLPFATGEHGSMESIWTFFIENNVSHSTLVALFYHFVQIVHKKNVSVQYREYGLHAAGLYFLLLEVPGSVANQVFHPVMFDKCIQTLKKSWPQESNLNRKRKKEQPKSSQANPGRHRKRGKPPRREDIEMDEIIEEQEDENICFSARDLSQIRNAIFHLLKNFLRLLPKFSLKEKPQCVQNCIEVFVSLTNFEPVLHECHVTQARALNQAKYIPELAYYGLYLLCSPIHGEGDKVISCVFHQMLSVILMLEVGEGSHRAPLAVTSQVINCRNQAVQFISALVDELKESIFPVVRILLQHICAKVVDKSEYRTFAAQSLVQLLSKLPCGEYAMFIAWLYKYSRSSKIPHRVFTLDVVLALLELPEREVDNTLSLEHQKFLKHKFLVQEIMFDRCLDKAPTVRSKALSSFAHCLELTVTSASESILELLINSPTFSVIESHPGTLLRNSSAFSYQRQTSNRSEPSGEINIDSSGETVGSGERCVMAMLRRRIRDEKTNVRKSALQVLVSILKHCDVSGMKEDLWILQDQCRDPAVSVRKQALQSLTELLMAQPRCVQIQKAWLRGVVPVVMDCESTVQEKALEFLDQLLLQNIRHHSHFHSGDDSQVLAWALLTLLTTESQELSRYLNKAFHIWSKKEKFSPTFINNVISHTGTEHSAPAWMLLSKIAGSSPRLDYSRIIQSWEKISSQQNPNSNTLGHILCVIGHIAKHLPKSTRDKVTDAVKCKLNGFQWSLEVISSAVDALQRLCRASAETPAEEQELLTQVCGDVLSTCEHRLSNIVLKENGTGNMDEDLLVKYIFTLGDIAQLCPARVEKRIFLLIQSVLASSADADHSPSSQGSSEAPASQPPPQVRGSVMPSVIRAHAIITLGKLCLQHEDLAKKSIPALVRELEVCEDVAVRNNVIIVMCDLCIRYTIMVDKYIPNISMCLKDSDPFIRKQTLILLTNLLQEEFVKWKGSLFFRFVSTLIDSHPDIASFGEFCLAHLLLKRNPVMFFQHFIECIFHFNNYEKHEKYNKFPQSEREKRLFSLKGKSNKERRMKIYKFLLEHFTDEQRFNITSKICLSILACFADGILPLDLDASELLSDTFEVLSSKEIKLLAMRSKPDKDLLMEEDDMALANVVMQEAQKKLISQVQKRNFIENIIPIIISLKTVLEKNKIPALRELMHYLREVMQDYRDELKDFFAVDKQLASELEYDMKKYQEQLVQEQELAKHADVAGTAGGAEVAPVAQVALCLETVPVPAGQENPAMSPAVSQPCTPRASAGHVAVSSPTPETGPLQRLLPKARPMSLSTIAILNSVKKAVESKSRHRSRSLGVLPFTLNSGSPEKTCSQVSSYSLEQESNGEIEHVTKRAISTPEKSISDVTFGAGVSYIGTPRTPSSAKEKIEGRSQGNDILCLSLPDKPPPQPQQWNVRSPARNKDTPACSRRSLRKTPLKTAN
# UniProt Q9P0J0, whole entry, looked up: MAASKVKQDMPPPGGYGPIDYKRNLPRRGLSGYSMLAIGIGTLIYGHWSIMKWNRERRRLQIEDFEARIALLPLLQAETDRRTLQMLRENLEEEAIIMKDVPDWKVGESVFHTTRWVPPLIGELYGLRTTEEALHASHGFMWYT
# UniProt Q15843, whole entry, looked up: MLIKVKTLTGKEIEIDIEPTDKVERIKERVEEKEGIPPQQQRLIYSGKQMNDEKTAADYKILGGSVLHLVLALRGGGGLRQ
# UniProt Q6XQN6: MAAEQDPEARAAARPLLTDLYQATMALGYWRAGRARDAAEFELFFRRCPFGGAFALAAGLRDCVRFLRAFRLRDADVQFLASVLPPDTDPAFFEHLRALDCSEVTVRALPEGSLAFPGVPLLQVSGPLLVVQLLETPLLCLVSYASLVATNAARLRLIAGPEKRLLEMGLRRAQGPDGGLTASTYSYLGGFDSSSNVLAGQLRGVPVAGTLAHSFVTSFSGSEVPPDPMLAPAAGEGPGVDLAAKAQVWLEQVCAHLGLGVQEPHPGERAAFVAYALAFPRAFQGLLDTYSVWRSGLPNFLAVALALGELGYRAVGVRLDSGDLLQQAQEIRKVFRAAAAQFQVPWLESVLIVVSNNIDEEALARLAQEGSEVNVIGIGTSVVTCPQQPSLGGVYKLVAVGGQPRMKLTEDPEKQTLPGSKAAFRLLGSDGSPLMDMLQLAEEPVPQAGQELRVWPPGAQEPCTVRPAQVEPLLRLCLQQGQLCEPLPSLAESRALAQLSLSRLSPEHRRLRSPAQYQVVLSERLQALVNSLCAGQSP
# UniProt O95299, whole entry, looked up: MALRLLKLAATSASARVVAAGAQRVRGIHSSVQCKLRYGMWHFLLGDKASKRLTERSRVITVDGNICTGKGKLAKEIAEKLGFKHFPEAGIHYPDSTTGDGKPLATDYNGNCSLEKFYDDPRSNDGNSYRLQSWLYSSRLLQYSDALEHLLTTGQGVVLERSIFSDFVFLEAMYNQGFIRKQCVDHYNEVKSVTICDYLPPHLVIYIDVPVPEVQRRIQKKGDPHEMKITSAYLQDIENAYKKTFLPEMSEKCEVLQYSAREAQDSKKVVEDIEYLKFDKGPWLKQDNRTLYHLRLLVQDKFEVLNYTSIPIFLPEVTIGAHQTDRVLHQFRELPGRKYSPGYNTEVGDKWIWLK
# UniProt Q15021, whole entry, looked up: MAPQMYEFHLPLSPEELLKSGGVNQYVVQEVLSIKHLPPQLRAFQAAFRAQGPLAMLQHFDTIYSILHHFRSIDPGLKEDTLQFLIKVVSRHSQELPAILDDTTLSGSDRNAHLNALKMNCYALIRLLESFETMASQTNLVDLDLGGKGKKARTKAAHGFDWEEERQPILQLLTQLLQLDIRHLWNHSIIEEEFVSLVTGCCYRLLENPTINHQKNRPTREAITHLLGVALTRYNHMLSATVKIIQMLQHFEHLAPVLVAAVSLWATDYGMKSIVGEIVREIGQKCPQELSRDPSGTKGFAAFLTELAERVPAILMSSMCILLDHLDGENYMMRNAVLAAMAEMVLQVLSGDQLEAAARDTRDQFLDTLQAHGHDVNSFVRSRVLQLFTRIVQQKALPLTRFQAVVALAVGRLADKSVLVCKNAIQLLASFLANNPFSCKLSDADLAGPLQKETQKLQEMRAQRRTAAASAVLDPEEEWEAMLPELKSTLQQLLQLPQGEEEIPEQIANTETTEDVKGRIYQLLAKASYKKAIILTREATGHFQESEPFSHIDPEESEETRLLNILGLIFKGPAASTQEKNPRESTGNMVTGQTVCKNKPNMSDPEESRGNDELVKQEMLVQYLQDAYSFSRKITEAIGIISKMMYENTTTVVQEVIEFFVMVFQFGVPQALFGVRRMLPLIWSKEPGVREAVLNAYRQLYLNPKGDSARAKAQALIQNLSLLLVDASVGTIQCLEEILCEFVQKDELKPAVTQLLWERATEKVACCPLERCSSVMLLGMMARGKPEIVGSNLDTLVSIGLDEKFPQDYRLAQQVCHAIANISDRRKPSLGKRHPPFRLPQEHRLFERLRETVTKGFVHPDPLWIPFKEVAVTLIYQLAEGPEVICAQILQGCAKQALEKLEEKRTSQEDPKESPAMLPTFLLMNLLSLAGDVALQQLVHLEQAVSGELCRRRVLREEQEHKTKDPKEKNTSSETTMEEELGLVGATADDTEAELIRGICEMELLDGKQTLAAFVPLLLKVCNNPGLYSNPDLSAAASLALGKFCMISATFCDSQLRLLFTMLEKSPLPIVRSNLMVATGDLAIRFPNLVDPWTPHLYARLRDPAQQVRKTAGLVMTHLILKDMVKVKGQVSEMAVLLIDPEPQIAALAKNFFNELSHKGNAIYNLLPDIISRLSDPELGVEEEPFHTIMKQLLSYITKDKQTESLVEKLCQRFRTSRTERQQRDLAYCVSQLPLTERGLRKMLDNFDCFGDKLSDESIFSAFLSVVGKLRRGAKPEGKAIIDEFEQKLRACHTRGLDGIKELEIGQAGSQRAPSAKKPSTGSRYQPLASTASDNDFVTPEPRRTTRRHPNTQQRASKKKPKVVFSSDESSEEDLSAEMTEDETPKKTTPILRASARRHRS
# UniProt O43920, whole entry, looked up: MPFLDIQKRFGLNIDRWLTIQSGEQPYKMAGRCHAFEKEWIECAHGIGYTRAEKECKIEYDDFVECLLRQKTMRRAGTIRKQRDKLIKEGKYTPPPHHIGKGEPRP
# UniProt Q6P582, whole entry, looked up: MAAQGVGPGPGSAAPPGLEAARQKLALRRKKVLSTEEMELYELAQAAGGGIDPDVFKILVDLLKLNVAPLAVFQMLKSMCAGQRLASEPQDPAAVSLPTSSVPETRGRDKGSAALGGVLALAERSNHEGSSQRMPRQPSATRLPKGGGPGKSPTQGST
# UniProt Q9Y375: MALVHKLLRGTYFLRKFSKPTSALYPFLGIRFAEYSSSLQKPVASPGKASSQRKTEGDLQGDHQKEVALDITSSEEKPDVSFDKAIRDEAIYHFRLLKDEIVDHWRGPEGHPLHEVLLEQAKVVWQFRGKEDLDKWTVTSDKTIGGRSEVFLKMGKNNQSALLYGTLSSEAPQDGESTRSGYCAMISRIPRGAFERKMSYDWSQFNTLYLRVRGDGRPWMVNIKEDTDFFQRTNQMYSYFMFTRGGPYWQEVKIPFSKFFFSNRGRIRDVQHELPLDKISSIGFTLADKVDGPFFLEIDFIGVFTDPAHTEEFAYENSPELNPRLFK
# The other results are listed elsewhere or left out.
# Compound: CC1=C2C(=CC=C1)N=C(N(C2=O)C3=CC=CC=C3C)CN4C=NC5=C(N=CN=C54)N
# Assay: log2 fold change, soluble protein after heating vs DMSO (PISA); higher = thermal stabilisation; K562 cells, 10 uM, 30 min; active = over 0.2 and 3.5 SD of the protein, either way, in both replicates (recomputed)
# Summary of the method: (§1)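 K562 cells at 2×10^6 cells/mL were exposed to 10 μM compound for 30 min, then aliquots were heated for 3 min across 48°C-58°C, pooled, and extracted in PBS containing 0.5% NP-40 at 4°C. The supernatant after 21,000xg for 90 min was taken as soluble protein and measured by TMTpro 16plex LC-MS/MS with channel sums equalised. Thermal stability is reported relative to control samples, with values from duplicates. Fold changes are given on a log2 scale.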
row,Target,log2 fold change
1,NDUFA5 (UniProt Q16718),inactive: 0.08
2,NCS1 (UniProt P62166),inactive: 0.059
3,NAP1L4 isoform 2 (UniProt Q99733),inactive: 0.016
4,NAE1 (UniProt Q13564),inactive: 0.04
5,NCAPH (UniProt Q15003),inactive: 0.109
6,NCOR2 (UniProt C9J0Q5),inactive: 0.143
7,NCAPD3 (UniProt P42695),inactive: -0.077
8,NDUFA13 (UniProt Q9P0J0),inactive: 0.141

# Compound: Cc1sc2c(c1C)C(c1ccc(Cl)cc1)=N[C@@H](CC(=O)OC(C)(C)C)c1nnc(C)n1-2
# Assay: as above
# Summary of the method: as §1
row,Target,log2 fold change
1,NEDD8 (UniProt Q15843),inactive: 0.008
2,NANS (UniProt Q9NR45),inactive: -0.015
3,NAA35 (UniProt Q5VZE5),inactive: -0.022
4,NCLN (UniProt Q969V3),inactive: 0.033
5,"NA, A0A494C071",inactive: 0.07
6,NADK (UniProt O95544),inactive: 0.017
7,NARS2 (UniProt Q96I59),inactive: 0
8,NDUFS6 (UniProt O75380),inactive: 0.045
9,NCALD (UniProt P61601),inactive: 0.035
10,NAPRT (UniProt Q6XQN6),inactive: 0.016
11,NACC1 (UniProt Q96RE7),inactive: -0.037
12,NDUFA10 (UniProt O95299),inactive: -0.041
13,NDUFAB1 (UniProt O14561),inactive: -0.033
14,NCAPD2 (UniProt Q15021),inactive: 0.016
15,NDUFB5 (UniProt O43674),inactive: -0.019
16,NDUFA7 (UniProt O95182),inactive: 0.008

row,Target,log2 fold change
1,NDUFS5 (UniProt O43920),inactive: 0.007
2,MZT2A (UniProt Q6P582),inactive: -0.06
3,MYO9B (UniProt Q13459),inactive: 0.125
4,NDUFAF1 (UniProt Q9Y375),inactive: 0.028
5,NASP (UniProt P49321),inactive: -0.022
6,NAT10 (UniProt Q9H0A0),inactive: 0.242
7,NDUFB10 (UniProt O96000),inactive: -0.031
8,NDUFAF6 (UniProt Q330K2),inactive: 0.063
9,NDUFA5 (UniProt Q16718),inactive: -0.169
10,NCS1 (UniProt P62166),inactive: -0.025
11,NAP1L4 isoform 2 (UniProt Q99733),inactive: -0.007
12,NAE1 (UniProt Q13564),inactive: 0.033
13,NCAPH (UniProt Q15003),inactive: -0.007
14,NCOR2 (UniProt C9J0Q5),inactive: -0.049
15,NCAPD3 (UniProt P42695),inactive: 0.01
16,NDUFA13 (UniProt Q9P0J0),inactive: -0.112

# Compound: c1ccc([C@@H]2C[C@H]2NC2CCNCC2)cc1
# Assay: as above
# Summary of the method: as §1
row,Target,log2 fold change
1,NEDD8 (UniProt Q15843),inactive: -0.065
2,NANS (UniProt Q9NR45),inactive: -0.024
3,NAA35 (UniProt Q5VZE5),inactive: -0.034
4,NCLN (UniProt Q969V3),inactive: -0.001
5,"NA, A0A494C071",inactive: 0.072
6,NADK (UniProt O95544),inactive: 0.009
7,NARS2 (UniProt Q96I59),inactive: -0.027
8,NDUFS6 (UniProt O75380),inactive: 0.076
9,NCALD (UniProt P61601),inactive: -0.03
10,NAPRT (UniProt Q6XQN6),inactive: 0.023
11,NACC1 (UniProt Q96RE7),inactive: -0.015
12,NDUFA10 (UniProt O95299),inactive: -0.019
13,NDUFAB1 (UniProt O14561),inactive: 0.072
14,NCAPD2 (UniProt Q15021),inactive: 0.007
15,NDUFB5 (UniProt O43674),inactive: 0.009
16,NDUFA7 (UniProt O95182),inactive: 0.034

row,Target,log2 fold change
1,NDUFS5 (UniProt O43920),inactive: -0.006
2,MZT2A (UniProt Q6P582),inactive: 0.047
3,MYO9B (UniProt Q13459),inactive: -0.015
4,NDUFAF1 (UniProt Q9Y375),inactive: 0.043
5,NASP (UniProt P49321),inactive: 0.013
6,NAT10 (UniProt Q9H0A0),inactive: 0.034
7,NDUFB10 (UniProt O96000),inactive: 0.002
8,NDUFAF6 (UniProt Q330K2),inactive: 0.024
9,NDUFA5 (UniProt Q16718),inactive: -0.137
10,NCS1 (UniProt P62166),inactive: -0.017
11,NAP1L4 isoform 2 (UniProt Q99733),inactive: 0.02
12,NAE1 (UniProt Q13564),inactive: -0.011
13,NCAPH (UniProt Q15003),inactive: 0.001
14,NCOR2 (UniProt C9J0Q5),inactive: 0.024
15,NCAPD3 (UniProt P42695),inactive: -0.045
16,NDUFA13 (UniProt Q9P0J0),inactive: -0.015
